Test results as given in patent US8679503B2, “Methods, compositions and kits relating to chitnases and chitnase-like molecules and inflammation disease” (Yale University, priority 2001, dated 2014).
For at least one compound, name, drawing or mass did not settle the structure.

Tested on: OVA sensitized and challenged wild type mice
Test: Allosamidin in OVA sensitization and challenge murine asthma model
Format: in vivo, mouse
Settings: daily doses from Day one; evaluated Days two and seven after OVA aerosol challenge; FIG. 16E

CC(=O)N[C@H]1[C@H](O[C@H]2[C@@H](O)[C@@H](NC(C)=O)[C@H](O[C@H]3[C@H](O)[C@H]4N=C(N(C)C)O[C@H]4[C@@H]3CO)O[C@@H]2CO)O[C@H](CO)[C@@H](O)[C@H]1O [allosamidin]
dose dependent effect on total BAL cell recovery: significant (p<0.01) reduction in total BAL cell recovery
